Structures can show the parent of a compound that is named as a salt. The list shows a part of the results. Single values are uncertain here, since repeats match poorly.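 The cells were human embryonic kidney cells carrying a Renilla luciferase gene, driven by the HSV-TK promoter, on a plasmid put in briefly by transfection. This is the first-round screen of about ten thousand compounds, looking for ones that raise reporter output.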
System: HEK 293FT
Experiment: log relative Renilla luciferase luminescence (reporter expression vs reference, reference not stated) (log (base not stated)); higher = higher recombinant reporter expression
Conditions: 10 µM; time after transfection 48 h

Row | SMILES | log
1 | Cc1noc(NS(=O)(=O)c2ccc(N)cc2)c1C [Sulfisoxazole] | 0.0496
2 | CCc1cccc2c3c([nH]c12)C(CC)(CC(=O)O)OCC3 (centres undefined) [Etodolac] | -0.0154
3 | CC1=C(CC(=O)O)c2cc(F)ccc2/C1=C\c1ccc([S+](C)[O-])cc1 (centres undefined) [Sulindac] | 0.146
4 | CC(Oc1c(Cl)cccc1Cl)C1=NCCN1 (centres undefined) [Lofexidine] | 0.06
5 | CO/N=C(\C(=O)N[C@@H]1C(=O)N2C(C(=O)O)=C(C[N+]3(C)CCCC3)CS[C@H]12)c1csc(N)n1 [Cefepime hydrochloride] | 0.113
6 | CCOC(=O)[C@H](CCc1ccccc1)N[C@@H](C)C(=O)N1CCC[C@H]1C(=O)O [Enalapril maleate] | 0.0542
7 | CC(=O)Nc1ccc(O)cc1 [Acetaminophen] | -0.0175
8 | COc1ccc2[nH]c([S+]([O-])Cc3ncc(C)c(OC)c3C)nc2c1 (centres undefined) [Omeprazole] | 0.000654
9 | Cc1ccccc1N1C(=O)c2cc(S(N)(=O)=O)c(Cl)cc2NC1C (centres undefined) [Metolazone] | -0.0137
10 | Cc1cc(-n2c(=O)[nH]c(=O)n(C)c2=O)ccc1Oc1ccc(SC(F)(F)F)cc1 [Toltrazuril] | -0.00526
11 | C=CC1=C(C(=O)O)N2C(=O)[C@@H](NC(=O)/C(=N\OCC(=O)O)c3csc(N)n3)[C@H]2SC1 [Cefixime] | -0.00154
12 | OCCOCCN1CCN(C(c2ccccc2)c2ccc(Cl)cc2)CC1 (centres undefined) [Hydroxyzine dihydrochloride] | 0.0238
13 | Nc1cc(-c2ccncc2)c[nH]c1=O [Amrinone] | 0.0308
14 | c1ccc2c(c1)CCCc1cc(NCCN3CCOCC3)nnc1-2 | 0.0824
15 | CC(N)C12CC3CC(CC(C3)C1)C2 (centres undefined) [Rimantadine Hydrochloride] | -0.00861
16 | CN(CCOc1ccc(CC2SC(=O)NC2=O)cc1)c1ccccn1 (centres undefined) [Rosiglitazone Hydrochloride] | 0.0676
17 | CCC(=O)OCC(=O)[C@@]1(OC(=O)CC)[C@H](C)C[C@H]2[C@H]3[C@H]([C@@H](O)C[C@@]21C)[C@@]1(C)C=CC(=O)C=C1C[C@H]3Cl [Alclometasone dipropionate] | -0.242
18 | CCCc1nc(C(C)(C)O)c(C(=O)O)n1Cc1ccc(-c2ccccc2-c2nnn[nH]2)cc1 [Olmesartan] | 0.0581
19 | OC(CCN1CCCCC1)(c1ccccc1)C1CCCCC1 (centres undefined) [Trihexyphenidyl-D,L Hydrochloride] | 0.146
20 | N=C(N)N/N=C/c1c(Cl)cccc1Cl [Guanabenz acetate] | -0.313
21 | CN(C)CCOC(=O)COc1ccc(Cl)cc1 [Meclofenoxate hydrochloride] | 0.0105
22 | CC(Oc1ccccc1)C(=O)N[C@@H]1C(=O)N2[C@@H]1SC(C)(C)[C@@H]2C(=O)O (some centres undefined) [Phenethicillin potassium salt] | -0.284
23 | N[C@@H](C(=O)N[C@@H]1C(=O)N2C(C(=O)O)=C(Cl)CS[C@H]12)c1ccccc1 [Cefaclor hydrate] | -0.0555
24 | COc1ccc(C(=O)NCc2ccc(OCCN(C)C)cc2)cc1OC [Itopride] | 0.0364
25 | O=C1c2ccccc2S(=O)(=O)N1CCCCN1CCN(c2ncccn2)CC1 [Ipsapirone] | -0.0492

4 entries from above, tab-delimited:
Row	SMILES	log
11	C=CC1=C(C(=O)O)N2C(=O)[C@@H](NC(=O)/C(=N\OCC(=O)O)c3csc(N)n3)[C@H]2SC1 [Cefixime]	-0.00154
13	Nc1cc(-c2ccncc2)c[nH]c1=O [Amrinone]	0.0308
16	CN(CCOc1ccc(CC2SC(=O)NC2=O)cc1)c1ccccn1 (centres undefined) [Rosiglitazone Hydrochloride]	0.0676
21	CN(C)CCOC(=O)COc1ccc(Cl)cc1 [Meclofenoxate hydrochloride]	0.0105

Next part:

Row | SMILES | log
26 | Cn1c([N+](=O)[O-])cnc1COC(N)=O [Ronidazole] | 0.11
27 | CN(C)[C@@H]1C(O)=C(C(N)=O)C(=O)[C@@]2(O)C(O)=C3C(=O)c4c(O)ccc(Cl)c4[C@@H](O)[C@H]3C[C@@H]12 [Demeclocycline hydrochloride] | -0.0169
28 | O=C(OCCOCCO)c1ccccc1Nc1cccc(C(F)(F)F)c1 [Etofenamate] | -0.128
29 | O=C(O)[C@H]1/C(=C/CO)O[C@@H]2CC(=O)N21 [Potassium clavulanate] | -0.15
30 | Cc1cnc(C(=O)O)c[n+]1[O-] [Acipimox] | -0.137
31 | CC(C)(C)NC[C@H](O)COc1ccccc1C1CCCC1 [Penbutolol sulfate] | -0.0418
32 | COc1ccc(C(=O)c2ccccc2O)c(O)c1 [Dioxybenzone] | 0.0657
33 | CN1CCC[C@@H]1CCO[C@](C)(c1ccccc1)c1ccc(Cl)cc1 [Clemastine fumarate] | 0.0619
34 | CCOc1ccc(NC(C)=O)cc1 [Phenacetin] | 0.131
35 | COc1cc2ncnc(Nc3ccc(F)c(Cl)c3)c2cc1OCCCN1CCOCC1 [Gefitinib] | 0.119
36 | CC(C(=O)O)c1ccc(C(=O)c2cccs2)cc1 (centres undefined) [Suprofen] | -0.263
37 | CCCCC[C@H](O)/C=C/[C@H]1[C@H](O)CC(=O)[C@@H]1CCCCCCC(=O)O [Alprostadil] | -0.048
38 | CCN1CCC[C@H]1CNC(=O)c1c(O)c(Cl)cc(Cl)c1OC [Raclopride] | -0.0681
39 | CN[C@@H]1[C@H](O[C@H]2[C@H](O[C@H]3[C@H](O)[C@@H](O)[C@H](NC(=N)N)[C@@H](O)[C@@H]3NC(=N)N)O[C@@H](C)[C@]2(O)CO)O[C@@H](CO)[C@H](O)[C@H]1O [Dihydrostreptomycin sulfate] | 0.0641
40 | NCc1ccc(S(N)(=O)=O)cc1 [Mafenide hydrochloride] | 0.0238
41 | CCc1oc2ccccc2c1C(=O)c1cc(Br)c(O)c(Br)c1 [Benzbromarone] | -0.807
42 | CC/C(=C(\c1ccccc1)c1ccc(OCCN(C)C)cc1)c1ccccc1 [Tamoxifen citrate] | 0.136
43 | C#C[C@]1(O)CC[C@H]2[C@@H]3CCC4=C(CCC(=O)C4)[C@H]3CC[C@@]21C [Norethynodrel] | -0.00154
44 | CCOC(=O)[N-]c1c[n+](N2CCOCC2)no1 [Molsidomine] | 0.0542
45 | CC[N+](CC)(CC)CCOc1cccc(OCC[N+](CC)(CC)CC)c1OCC[N+](CC)(CC)CC [Gallamine triethiodide] | 0.0996
46 | CC(C)(C)NCC(O)c1cc(O)cc(O)c1 (centres undefined) [Terbutaline hemisulfate] | -0.0473
47 | NS(=O)(=O)c1cc2c(cc1Cl)NC(CC1CCCC1)NS2(=O)=O (centres undefined) [Cyclopenthiazide] | -0.106
48 | Cc1ccccc1C(OCCN(C)C)c1ccccc1 (centres undefined) [Orphenadrine hydrochloride] | 0.0943
49 | CC(C)NCC(O)c1ccc(O)c(O)c1 (single isomer, unassigned; (-)) [(-)-Isoproterenol hydrochloride] | 0.134

From the supplement of paper PMC7024190
